# PubChem BioAssay AID264 (DTP/NCI, 2004)
# The list does not hold the whole screen: it gathers tests that were run many times, whatever their T/C, doses with no T/C, and many T/C values between a quarter and a half above the control. Other doses and runs of a compound stand elsewhere. T/C gives the treated animals as a percentage of the vehicle group. Schedule codes are those of the source, read here as Q, the interval in days (D) or hours (H), X, the number of doses. Some T/C values are followed by the survivors on the day toxicity was checked, most often the fifth; without a count, all were alive then. Some entries hold several experiments; their values stand side by side, smallest first. Some entries give survivors of the animals treated and no T/C: the source holds a T/C of zero for them, seemingly a mark for toxic or unscored doses. Counts of survivors are from the toxicity check (mostly the fifth day) where no day follows; animals may have died later.
# Tested on: nude mice, LX-1 lung xenograft intrarenal, tumor weight T/C
# Experiment: NCI In Vivo Anticancer Drug Screen. Data for tumor model Human Lung LX-1 Xenograft (intrarenal inoculation) in NU/NU Swiss (nude) mice
# Conditions: T/C endpoint: mean tumor weight change, higher T/C = larger tumour; for T/C: evaluated on day 11
# Method in brief: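 Antitumor effect is expressed as a ratio: the mean tumor measurement of the drug-treated group relative to that of the vehicle-dosed control group.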
# [1] = dose: 32.0 mg/kg/injection, schedule: Q01DX010 (sc), vehicle: saline
# [2] = dose: 16.0 mg/kg/injection, schedule: Q01DX010 (sc), vehicle: saline
# [3] = dose: 64.0 mg/kg/injection, schedule: Q01DX010 (sc), vehicle: saline
smiles,measurement,setting,value
O=c1n(CC2CO2)c(=O)n(CC2CO2)c(=O)n1CC1CO1 (centres undefined),survivor count,"dose: 50.0 mg/kg/injection, schedule: Q01DX010 (sc), vehicle: saline",0 of 3 on day 11
same,survivor count,"dose: 100.0 mg/kg/injection, schedule: Q01DX010 (sc), vehicle: saline",0 of 3 on day 11
same,survivor count,"dose: 100.0 mg/kg/injection, schedule: Q04DX003 (sc), vehicle: saline with Tween-80",2 of 6 on day 11
same,survivor count,"dose: 200.0 mg/kg/injection, schedule: Q04DX003 (sc), vehicle: saline with Tween-80",2 of 6 on day 11
CCCCNC(C)C1(O)Cc2c(O)c3c(c(O)c2C(OC2CC(N)C(O)C(C)O2)C1)C(=O)c1c(OC)cccc1C3=O (centres undefined),survivor count,"dose: 1200.0 mg/kg/injection, schedule: Q04DX003 (sc), vehicle: water",0 of 3 on day 11
CC1(C)CC(=O)C(CSC(=O)c2ccccc2)C(=O)C1,survivor count,"dose: 600.0 mg/kg/injection, schedule: Q04DX003 (sc), vehicle: Klucel (hydroxypropylcellulose) (HPC)",1 of 5 on day 11
same,survivor count,"dose: 1200.0 mg/kg/injection, schedule: Q04DX003 (sc), vehicle: Klucel (hydroxypropylcellulose) (HPC)",0 of 6 on day 11
O=NN(CCCl)C(=O)NCCCl,survivor count,[1],0 of 3 on day 11
same,survivor count,"dose: 106.6 mg/kg/injection, schedule: Q04DX003 (sc), vehicle: saline",0 of 3 on day 11
O=S(=O)(O)O,T/C,"dose: 75.0 mg/kg/injection, schedule: Q04DX003 (sc), vehicle: Klucel (hydroxypropylcellulose) (HPC)",129 % of control
CC(C)CCCCCCCCCCCCC(=O)NCC(=O)NC1C(C)OC(Nc2ncnc3nc[nH]c23)C(O)C1O (centres undefined),survivor count,"dose: 16.0 mg/kg/injection, schedule: Q01DX010 (sc), vehicle: distilled water + Tween-80",2 of 6 on day 11 and 3 of 6 on day 11
same,survivor count,"dose: 32.0 mg/kg/injection, schedule: Q01DX010 (sc), vehicle: distilled water + Tween-80",2 of 6 on day 11
Cc1cn(C2CC3[O][Sn]([c]4ccccc4)([c]4ccccc4)[O]CC3O2)c(=O)[nH]c1=O (centres undefined),T/C,"dose: 1200.0 mg/kg/injection, schedule: Q04DX003 (sc), vehicle: saline",138 % of control
NC(CSC(c1ccccc1)(c1ccccc1)c1ccccc1)C(=O)O (centres undefined),survivor count,"dose: 100.0 mg/kg/injection, schedule: Q01DX010 (sc), vehicle: Klucel (hydroxypropylcellulose) (HPC)",0 of 3 on day 11
same,survivor count,"dose: 200.0 mg/kg/injection, schedule: Q01DX010 (sc), vehicle: Klucel (hydroxypropylcellulose) (HPC)",0 of 3 on day 11
Cc1c(N)nc([C@H](CC(N)=O)NC[C@H](N)C(N)=O)nc1C(=O)N[C@H](C(=O)N[C@H](C)[C@@H](O)[C@H](C)C(=O)N[C@H](C(=O)NCCc1nc(-c2nc(C(=O)NCCC[S+](C)C)cs2)cs1)[C@@H](C)O)C(OC1OC(CO)C(O)C(O)C1OC1OC(CO)C(O)C(OC(N)=O)C1O)c1cnc[nH]1 (some centres undefined),T/C,"dose: 8.0 mg/kg/injection, schedule: Q01DX010 (sc), vehicle: saline","16, 54, 57, 76, 106 % of control [2 of 3 alive on day 11]"
same,T/C,[2],"15 [2 of 2 alive on day 11], 17, 30, 44 % of control"
same,survivor count,[2],0 of 3 on day 11
same,T/C,[1],"3, 14 [2 of 3 alive on day 11], 28 % of control"
same,survivor count,[1],0 of 3 on day 11 and 1 of 3 on day 11
same,T/C,[3],15 % of control [4 of 6 alive on day 11]
same,survivor count,[3],0 of 2 on day 11 and 0 of 3 on day 11
same,survivor count,"dose: 64.0 mg/kg/injection, schedule: Q04DX003 (sc), vehicle: saline",0 of 3 on day 11
same,survivor count,"dose: 128.0 mg/kg/injection, schedule: Q04DX003 (sc), vehicle: saline",0 of 3 on day 11
Nc1n[n+](-c2ccccc2)no1,survivor count,"dose: 150.0 mg/kg/injection, schedule: Q04DX003 (sc), vehicle: water",2 of 6 on day 11
same,survivor count,"dose: 300.0 mg/kg/injection, schedule: Q04DX003 (sc), vehicle: water",0 of 6 on day 11
CCC(C)Nc1ccc(N)cc1 (centres undefined),survivor count,"dose: 36.0 mg/kg/injection, schedule: Q04DX003 (sc), vehicle: Klucel (hydroxypropylcellulose) (HPC)",1 of 6 on day 11
same,survivor count,"dose: 72.0 mg/kg/injection, schedule: Q04DX003 (sc), vehicle: Klucel (hydroxypropylcellulose) (HPC)",0 of 6 on day 11
Nc1nc(/C=C(/O)c2ccccc2)c2ncn(C3OC(CO)C(O)C3O)c2n1 (centres undefined),T/C,"dose: 800.0 mg/kg/injection, schedule: Q04DX003 (sc), vehicle: distilled water + Tween-80",149 % of control
